# Measurements taken from the supplement of paper PMC4604168 (melanoma cell lines).
# This is one part of the list. Single values are uncertain, as repeats are few or missing.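 Imaging used 1,536-well plates; nuclei positive for cleaved PARP by antibody were divided by total DNA-stained nuclei to yield the apoptosis fraction. Doses for screening kept most cells viable, and cell lines differ markedly in resting and induced cleaved-PARP levels.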
# Tested on: COLO829
# Experiment: cleaved PARP positive nuclei fraction relative to DMSO control; melanoma cells; higher = more apoptosis
# Settings: library dose: low library concentration; 72 h
row,Compound,cleaved PARP positive nuclei fraction [%]
1,"O=C(CCCCCCC(=O)Nc1ccccc1)NO [vorinostat] + COc1ccc2c(c1)CCC1C2CCC2(C)C(NCCCCCCN3C(=O)C=CC3=O)CCC12 [U73122] (first compound 0.08 µM, partner dose 0.4 µM)",133
2,"Cn1nnc2c(C(N)=O)ncn2c1=O [temozolomide] + COc1ccc(COc2ccc(Cc3cnc(N)nc3N)cc2OC)cc1 [GW2580] (first compound 2 µM, partner dose 1 µM)",126
3,"OCCn1cc(-c2cnc3nnn(Cc4ccc5ncccc5c4)c3n2)cn1 + COc1ccc(-c2ccc3c(N4CCOCC4)nc(N4C[C@@H](C)O[C@@H](C)C4)nc3n2)cc1CO [KU0063794] (first compound 1 µM, partner dose 0.02 µM)",109
4,"Cc1ccc(NC(=O)c2cccc(N(C)C)c2)cc1NC(=O)c1ccc(O)cc1 + Cn1cc(/C=C2\C(=O)Nc3cccnc32)c2ccccc21 [GW441756] (first compound 2 µM, partner dose 0.4 µM)",132
5,"Cc1ccc(NC(=O)c2cccc(N(C)C)c2)cc1NC(=O)c1ccc(O)cc1 + CCCCCCCCCCCC1=C(O)C(=O)C=C(O)C1=O [Embelin] (first compound 2 µM, partner dose 1.2 µM)",143
6,"Cn1cncc1[C@@](N)(c1ccc(Cl)cc1)c1ccc2c(c1)c(-c1cccc(Cl)c1)cc(=O)n2C [tipifarnib] + Cc1cc([N+](=O)[O-])ccc1NS(=O)(=O)c1cc(Cl)ccc1Cl [FH535] (first compound 0.01 µM, partner dose 1 µM)",116
7,"Cn1c(Nc2ccc(C(F)(F)F)cc2)nc2cc(Oc3ccnc(-c4ncc(C(F)(F)F)[nH]4)c3)ccc21 + COc1ccc2c(c1)CCC1C2CCC2(C)C(NCCCCCCN3C(=O)C=CC3=O)CCC12 [U73122] (first compound 0.08 µM, partner dose 0.4 µM)",172
8,"Cn1cncc1[C@@](N)(c1ccc(Cl)cc1)c1ccc2c(c1)c(-c1cccc(Cl)c1)cc(=O)n2C [tipifarnib] + Oc1cc(-c2nc(-c3ccccc3)[nH]c2-c2ccncc2)ccc1Cl [L779450] (first compound 0.01 µM, partner dose 0.2 µM)",44.1
9,"OCCn1cc(-c2cnc3nnn(Cc4ccc5ncccc5c4)c3n2)cn1 + O=C(O)C(=O)Nc1sc2c(c1C(=O)O)CCNC2 [TCS401] (first compound 1 µM, partner dose 1.66667 µM)",52.2
10,"C=CCn1c(=O)c2cnc(Nc3ccc(N4CCN(C)CC4)cc3)nc2n1-c1cccc(C(C)(C)O)n1 + Oc1nc(-c2ccc(C(F)(F)F)cc2)nc2c1CSCC2 [XAV939] (first compound 0.02 µM, partner dose 2 µM)",184
11,"Nc1cccc2c1CN(C1CCC(=O)NC1=O)C2=O (stereo unspecified) [lenalidomide] + CCCCCCCCCCCC1=C(O)C(=O)C=C(O)C1=O [Embelin] (first compound 1 µM, partner dose 1.2 µM)",57.1
12,"C[C@@H]1CCN(C(=O)CC#N)C[C@@H]1N(C)c1ncnc2[nH]ccc12 + Oc1cc(-c2nc(-c3ccccc3)[nH]c2-c2ccncc2)ccc1Cl [L779450] (first compound 1 µM, partner dose 0.2 µM)",69
13,"Cc1cc(N2CCOCC2)cc2[nH]c(-c3c(NC[C@@H](O)c4cccc(Cl)c4)cc[nH]c3=O)nc12 + Cc1cc([N+](=O)[O-])ccc1NS(=O)(=O)c1cc(Cl)ccc1Cl [FH535] (first compound 0.2 µM, partner dose 1 µM)",122
14,"C=CCn1c(=O)c2cnc(Nc3ccc(N4CCN(C)CC4)cc3)nc2n1-c1cccc(C(C)(C)O)n1 + O=C1NC(=O)/C(=C/c2ccc(-c3ccc(F)cc3O)o2)S1 [AS252424] (first compound 0.02 µM, partner dose 1 µM)",141
15,"Cc1ccc(NC(=O)c2cccc(N(C)C)c2)cc1NC(=O)c1ccc(O)cc1 + N#Cc1c(O)c2c(-c3ccc(-c4ccccc4O)cc3)csc2[nH]c1=O [A769662] (first compound 2 µM, partner dose 2 µM)",89.9
16,"Cn1cncc1[C@@](N)(c1ccc(Cl)cc1)c1ccc2c(c1)c(-c1cccc(Cl)c1)cc(=O)n2C [tipifarnib] + CCN(CC)CCCCNc1ncc2cc(-c3cc(OC)cc(OC)c3)c(NC(=O)NC(C)(C)C)nc2n1 [PD173074] (first compound 0.01 µM, partner dose 0.1 µM)",94.2

# A few values from above:
# Cc1ccc(NC(=O)c2cccc(N(C)C)c2)cc1NC(=O)c1ccc(O)cc1 + CCCCCCCCCCCC1=C(O)C(=O)C=C(O)C1=O [Embelin] (first compound 2 µM, partner dose 1.2 µM) – cleaved PARP positive nuclei fraction [%]: 143
# Cn1nnc2c(C(N)=O)ncn2c1=O [temozolomide] + COc1ccc(COc2ccc(Cc3cnc(N)nc3N)cc2OC)cc1 [GW2580] (first compound 2 µM, partner dose 1 µM) – cleaved PARP positive nuclei fraction [%]: 126
